Data reported in PMC12398889.
Results are given in words; binding and its absence hold for the method and conditions named. Binding seen in cells or lysates may run through a third protein. Some entries that bind do so weakly or less than the wild type. For some assays here: Where a sequence is shown, tags or fusion partners need not be part of it.

Columns and labels:
[1] = molecular target: T1, Flag-CPNE5 (mouse CPNE5 cDNA with a Flag tag in pcDNA3.1(+)) (mouse) (UniProt Q8JZW4); assay: co-IP; IP with anti-FLAG antibody on Protein A/G magnetic beads, 4°C 2 h, lysate of NMCMs transfected with Flag-Cpne5; immunoblot; IgG as negative control; also with FASL added to the cells
T1 sequence: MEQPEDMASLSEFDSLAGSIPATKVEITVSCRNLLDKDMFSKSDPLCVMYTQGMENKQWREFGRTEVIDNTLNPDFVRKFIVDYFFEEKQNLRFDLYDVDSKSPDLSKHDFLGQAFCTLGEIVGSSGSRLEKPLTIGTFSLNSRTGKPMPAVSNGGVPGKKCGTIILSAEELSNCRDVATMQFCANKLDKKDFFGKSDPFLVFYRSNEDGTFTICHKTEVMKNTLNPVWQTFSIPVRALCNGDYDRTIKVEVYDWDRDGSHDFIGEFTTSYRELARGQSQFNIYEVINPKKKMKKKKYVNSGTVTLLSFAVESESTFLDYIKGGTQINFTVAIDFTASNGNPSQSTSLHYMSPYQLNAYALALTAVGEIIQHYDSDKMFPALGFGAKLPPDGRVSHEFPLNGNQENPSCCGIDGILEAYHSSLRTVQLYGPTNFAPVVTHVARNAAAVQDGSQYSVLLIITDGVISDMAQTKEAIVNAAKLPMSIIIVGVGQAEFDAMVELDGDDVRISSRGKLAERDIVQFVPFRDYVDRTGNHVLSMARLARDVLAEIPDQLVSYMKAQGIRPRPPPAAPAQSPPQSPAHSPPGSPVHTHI

[2] = molecular target: T2, Flag-CPNE5 expressed from AAV9-OE-Cpne5 (entire coding region of mouse CPNE5, cTNT promoter) (mouse) (UniProt Q8JZW4); assay: co-IP; CPNE5 overexpressing mouse tissues (Figure S4); precipitating antibody not given
T2 sequence: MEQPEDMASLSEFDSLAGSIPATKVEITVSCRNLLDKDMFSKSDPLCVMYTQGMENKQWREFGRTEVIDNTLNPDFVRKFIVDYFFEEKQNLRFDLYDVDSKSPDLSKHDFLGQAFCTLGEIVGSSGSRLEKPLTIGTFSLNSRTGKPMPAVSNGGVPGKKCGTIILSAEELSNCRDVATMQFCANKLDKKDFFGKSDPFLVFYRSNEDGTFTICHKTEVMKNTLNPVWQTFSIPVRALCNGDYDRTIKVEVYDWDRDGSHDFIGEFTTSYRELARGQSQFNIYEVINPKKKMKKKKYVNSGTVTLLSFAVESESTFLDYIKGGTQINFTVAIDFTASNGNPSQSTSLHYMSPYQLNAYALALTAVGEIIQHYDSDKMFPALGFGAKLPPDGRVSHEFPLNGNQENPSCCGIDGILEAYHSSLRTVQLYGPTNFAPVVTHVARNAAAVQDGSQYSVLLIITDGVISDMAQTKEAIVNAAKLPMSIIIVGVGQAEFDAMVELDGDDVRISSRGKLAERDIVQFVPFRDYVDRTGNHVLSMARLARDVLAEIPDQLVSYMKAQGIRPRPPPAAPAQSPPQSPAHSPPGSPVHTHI

[3] = molecular target: T3, FAS receptor (mouse (endogenous in neonatal mouse cardiomyocytes and mouse heart)), P25446; assay: co-IP; IP with anti-FAS antibody on Protein A/G magnetic beads, 4°C 2 h, lysate of NMCMs transfected with Flag-Cpne5; immunoblot; IgG as negative control; also with FASL added to the cells; conditions: remark: other sources report otherwise
T3 chain: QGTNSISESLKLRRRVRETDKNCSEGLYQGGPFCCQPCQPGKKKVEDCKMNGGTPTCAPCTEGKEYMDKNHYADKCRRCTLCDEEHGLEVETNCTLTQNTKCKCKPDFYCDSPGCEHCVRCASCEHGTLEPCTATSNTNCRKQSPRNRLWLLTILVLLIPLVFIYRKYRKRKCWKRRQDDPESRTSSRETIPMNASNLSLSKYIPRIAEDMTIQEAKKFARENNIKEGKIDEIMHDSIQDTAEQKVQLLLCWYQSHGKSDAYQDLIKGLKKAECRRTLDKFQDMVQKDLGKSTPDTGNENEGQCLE

B1: CALCOCO1 (protein, UniProt Q8CGU1 1-691)
chain: MEESSLSRAPSRGGVNFLNVARTYIPNTKVECHYTLPPGTMPSASDWIGIFKVEAACVRDYHTFVWSSVPESTTDGSPTHASVQFQASYLPKPGAQLYQFRYVNRQGRVCGQSPPFQFREPRPMDELVTLEEADGGSDILLVVPKATVLQNQLDESQQERNDLMQLKLQLEDQVTELRSRVQELEAALATARQEHSELTEQYKGLSRSHGELSEERDILSQQQGDHVARILELEDDIQTMSDKVLMKEVELDRVRDTVKALTREQEKLLRQLKEFQADKEQSEAELQTVREENCCLNTELEEAKSRQEEQGAQVQRLKDKLAHMKDTLGQAQQKVAELEPLKEQLRGVQELAASSQQKAALLGEELASAAGARDRTIAELHRSRLEVAEVNGRLAELSLHMKEEKCQWSKERTGLLQSMEAEKDKILKLSAEILRLEKTVQEERTQSHVFKTELAREKDSSLVQLSESKRELTELRSALRVLQKEKEQLQTEKQELLEYMRKLEARLEKVADEKWTEDAATEDEEATAGLSCPASLTDSEDESPEDMRLPSYGLCESGNTSSSPPGPREPSSLVVINQPAPIAPQFSGPGEASSSDSEAEDEKSVLMAAVQSGGEEASLLLPELGSAFYDVASAFTVSSLSEASPGVPANPPWKECPICKERFPAESDKDALEGHMDGHFFFSTQDPFTFE
- binding [1]: binds

B2: FAS receptor (receptor, UniProt P25446 22-327)
chain: QGTNSISESLKLRRRVRETDKNCSEGLYQGGPFCCQPCQPGKKKVEDCKMNGGTPTCAPCTEGKEYMDKNHYADKCRRCTLCDEEHGLEVETNCTLTQNTKCKCKPDFYCDSPGCEHCVRCASCEHGTLEPCTATSNTNCRKQSPRNRLWLLTILVLLIPLVFIYRKYRKRKCWKRRQDDPESRTSSRETIPMNASNLSLSKYIPRIAEDMTIQEAKKFARENNIKEGKIDEIMHDSIQDTAEQKVQLLLCWYQSHGKSDAYQDLIKGLKKAECRRTLDKFQDMVQKDLGKSTPDTGNENEGQCLE
- binding [1]: binds
- binding [2]: binds

B3: Fas-associated death domain (FADD) (protein, UniProt Q61160 1-205)
chain: MDPFLVLLHSLSGSLSGNDLMELKFLCRERVSKRKLERVQSGLDLFTVLLEQNDLERGHTGLLRELLASLRRHDLLQRLDDFEAGTATAAPPGEADLQVAFDIVCDNVGRDWKRLARELKVSEAKMDGIEEKYPRSLSERVRESLKVWKNAEKKNASVAGLVKALRTCRLNLVADLVEEAQESVSKSENMSPVLRDSTVSSSETP
- binding [1]: no binding

B4: Fas-associated death domain (FADD), Q61160 1-205 (protein)
chain: MDPFLVLLHSLSGSLSGNDLMELKFLCRERVSKRKLERVQSGLDLFTVLLEQNDLERGHTGLLRELLASLRRHDLLQRLDDFEAGTATAAPPGEADLQVAFDIVCDNVGRDWKRLARELKVSEAKMDGIEEKYPRSLSERVRESLKVWKNAEKKNASVAGLVKALRTCRLNLVADLVEEAQESVSKSENMSPVLRDSTVSSSETP
- binding [3]: no binding
